# Values of other authors in US20260083654A1, “PHOTOPROTECTIVE SYSTEM CONSISTING OF 4 SUNSCREENS” (PIERRE FABRE DERMO-COSMETIQUE, priority 2019, published 2026).
# For at least one compound, name, drawing or mass did not settle the structure.
smiles,measurement,value
CCCCC(CC)COC(=O)c1ccc(Nc2nc(Nc3ccc(C(=O)OCC(CC)CCCC)cc3)nc(Nc3ccc(C(=O)OCC(CC)CCCC)cc3)n2)cc1 (stereo not shown) [Ethylhexyl triazone],maximum absorption wavelength λmax,314 nm
